Laboratory results from the supplement of paper PMC10849652.
Some of the results follow.

Amino acid sequences for entries named in this document (tags omitted). A change or cut given only in a name is not applied to a line headed by its entry.
UniProt P20226, whole entry, looked up: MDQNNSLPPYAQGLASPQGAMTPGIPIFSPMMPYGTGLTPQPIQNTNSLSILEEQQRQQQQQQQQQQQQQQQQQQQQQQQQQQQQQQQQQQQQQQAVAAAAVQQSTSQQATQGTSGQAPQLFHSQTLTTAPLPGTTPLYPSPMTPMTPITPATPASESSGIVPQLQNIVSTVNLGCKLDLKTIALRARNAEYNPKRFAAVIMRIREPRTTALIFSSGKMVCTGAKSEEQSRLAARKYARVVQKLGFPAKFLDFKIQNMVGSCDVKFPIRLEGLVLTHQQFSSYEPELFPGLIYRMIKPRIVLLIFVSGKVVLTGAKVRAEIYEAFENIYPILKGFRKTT
UniProt Q9BVV7: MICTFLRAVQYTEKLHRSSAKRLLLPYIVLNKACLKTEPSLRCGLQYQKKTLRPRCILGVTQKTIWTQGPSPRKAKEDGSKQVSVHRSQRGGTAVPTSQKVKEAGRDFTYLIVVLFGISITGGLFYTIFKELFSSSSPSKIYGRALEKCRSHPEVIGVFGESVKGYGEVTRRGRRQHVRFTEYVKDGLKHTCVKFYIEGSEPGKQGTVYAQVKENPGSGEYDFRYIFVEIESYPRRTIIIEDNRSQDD
UniProt Q00059: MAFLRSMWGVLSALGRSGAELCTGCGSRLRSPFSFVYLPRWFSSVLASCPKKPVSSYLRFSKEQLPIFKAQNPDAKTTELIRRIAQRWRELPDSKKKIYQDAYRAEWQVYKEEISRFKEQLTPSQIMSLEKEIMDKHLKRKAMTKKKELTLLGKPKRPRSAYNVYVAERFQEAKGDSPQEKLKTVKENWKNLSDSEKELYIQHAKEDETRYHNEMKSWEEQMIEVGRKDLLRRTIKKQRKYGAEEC
UniProt Q9Y2W1: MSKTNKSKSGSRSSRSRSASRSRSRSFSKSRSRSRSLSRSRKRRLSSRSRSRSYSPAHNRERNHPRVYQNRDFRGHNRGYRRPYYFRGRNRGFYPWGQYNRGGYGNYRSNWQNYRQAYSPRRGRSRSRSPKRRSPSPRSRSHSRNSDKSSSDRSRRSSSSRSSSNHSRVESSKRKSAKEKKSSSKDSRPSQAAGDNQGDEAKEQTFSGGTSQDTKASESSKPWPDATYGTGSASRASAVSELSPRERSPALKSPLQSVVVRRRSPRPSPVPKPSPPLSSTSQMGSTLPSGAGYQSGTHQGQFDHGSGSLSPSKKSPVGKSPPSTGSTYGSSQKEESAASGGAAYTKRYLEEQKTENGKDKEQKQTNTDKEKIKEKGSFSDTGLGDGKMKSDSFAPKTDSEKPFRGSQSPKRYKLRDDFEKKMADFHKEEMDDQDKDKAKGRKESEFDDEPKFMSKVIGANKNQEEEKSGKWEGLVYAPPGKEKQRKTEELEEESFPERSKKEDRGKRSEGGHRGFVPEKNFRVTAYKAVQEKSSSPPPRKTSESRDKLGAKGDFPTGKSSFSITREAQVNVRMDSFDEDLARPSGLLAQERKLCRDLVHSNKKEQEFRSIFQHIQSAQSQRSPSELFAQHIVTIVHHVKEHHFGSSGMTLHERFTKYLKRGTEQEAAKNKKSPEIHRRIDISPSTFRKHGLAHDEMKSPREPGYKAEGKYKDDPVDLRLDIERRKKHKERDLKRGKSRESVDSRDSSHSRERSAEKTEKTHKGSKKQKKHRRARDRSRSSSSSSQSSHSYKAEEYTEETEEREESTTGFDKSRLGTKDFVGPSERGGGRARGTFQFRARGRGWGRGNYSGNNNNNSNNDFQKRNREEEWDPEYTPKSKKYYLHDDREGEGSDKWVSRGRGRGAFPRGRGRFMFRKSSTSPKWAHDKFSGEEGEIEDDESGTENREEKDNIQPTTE
UniProt Q01085: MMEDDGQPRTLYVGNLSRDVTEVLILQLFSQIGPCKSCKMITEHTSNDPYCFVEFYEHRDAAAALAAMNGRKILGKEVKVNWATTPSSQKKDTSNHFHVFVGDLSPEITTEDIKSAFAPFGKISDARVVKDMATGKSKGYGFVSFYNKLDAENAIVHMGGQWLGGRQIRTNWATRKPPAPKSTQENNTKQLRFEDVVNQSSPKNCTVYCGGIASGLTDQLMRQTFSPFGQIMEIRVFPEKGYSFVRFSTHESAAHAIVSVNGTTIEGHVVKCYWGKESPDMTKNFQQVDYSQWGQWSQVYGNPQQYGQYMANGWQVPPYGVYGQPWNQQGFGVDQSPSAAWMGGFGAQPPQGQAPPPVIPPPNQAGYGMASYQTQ
UniProt P02786, whole entry, looked up: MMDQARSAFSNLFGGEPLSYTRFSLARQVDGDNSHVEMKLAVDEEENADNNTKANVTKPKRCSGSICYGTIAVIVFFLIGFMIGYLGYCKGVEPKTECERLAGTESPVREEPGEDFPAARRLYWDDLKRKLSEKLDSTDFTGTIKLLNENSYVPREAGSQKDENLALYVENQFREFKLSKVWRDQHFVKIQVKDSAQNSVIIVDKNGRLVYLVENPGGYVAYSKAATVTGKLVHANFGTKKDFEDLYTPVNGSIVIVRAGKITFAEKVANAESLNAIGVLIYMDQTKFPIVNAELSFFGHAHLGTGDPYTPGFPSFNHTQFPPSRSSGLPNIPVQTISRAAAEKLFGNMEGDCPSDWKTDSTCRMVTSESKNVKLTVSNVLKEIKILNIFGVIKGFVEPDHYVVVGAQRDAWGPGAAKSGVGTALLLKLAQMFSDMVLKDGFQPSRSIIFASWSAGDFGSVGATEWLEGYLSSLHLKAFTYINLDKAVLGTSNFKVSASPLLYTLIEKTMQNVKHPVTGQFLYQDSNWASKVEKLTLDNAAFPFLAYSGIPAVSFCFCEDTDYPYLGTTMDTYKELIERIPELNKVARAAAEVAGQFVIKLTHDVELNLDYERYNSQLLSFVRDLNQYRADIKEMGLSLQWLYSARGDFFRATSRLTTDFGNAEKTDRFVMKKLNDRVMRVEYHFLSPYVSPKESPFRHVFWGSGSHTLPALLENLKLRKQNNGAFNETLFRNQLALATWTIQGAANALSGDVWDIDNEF
UniProt Q9Y5L4: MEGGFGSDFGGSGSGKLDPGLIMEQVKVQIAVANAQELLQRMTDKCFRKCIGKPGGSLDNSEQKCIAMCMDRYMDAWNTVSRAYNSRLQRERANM
UniProt Q8TBR7: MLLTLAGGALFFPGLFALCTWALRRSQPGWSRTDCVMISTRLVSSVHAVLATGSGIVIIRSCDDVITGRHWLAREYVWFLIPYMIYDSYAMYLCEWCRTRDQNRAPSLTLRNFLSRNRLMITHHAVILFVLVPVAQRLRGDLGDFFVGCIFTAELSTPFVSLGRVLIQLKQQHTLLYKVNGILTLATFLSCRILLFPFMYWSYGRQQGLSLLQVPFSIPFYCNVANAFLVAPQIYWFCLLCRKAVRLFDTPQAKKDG
UniProt Q66K14, whole entry, looked up: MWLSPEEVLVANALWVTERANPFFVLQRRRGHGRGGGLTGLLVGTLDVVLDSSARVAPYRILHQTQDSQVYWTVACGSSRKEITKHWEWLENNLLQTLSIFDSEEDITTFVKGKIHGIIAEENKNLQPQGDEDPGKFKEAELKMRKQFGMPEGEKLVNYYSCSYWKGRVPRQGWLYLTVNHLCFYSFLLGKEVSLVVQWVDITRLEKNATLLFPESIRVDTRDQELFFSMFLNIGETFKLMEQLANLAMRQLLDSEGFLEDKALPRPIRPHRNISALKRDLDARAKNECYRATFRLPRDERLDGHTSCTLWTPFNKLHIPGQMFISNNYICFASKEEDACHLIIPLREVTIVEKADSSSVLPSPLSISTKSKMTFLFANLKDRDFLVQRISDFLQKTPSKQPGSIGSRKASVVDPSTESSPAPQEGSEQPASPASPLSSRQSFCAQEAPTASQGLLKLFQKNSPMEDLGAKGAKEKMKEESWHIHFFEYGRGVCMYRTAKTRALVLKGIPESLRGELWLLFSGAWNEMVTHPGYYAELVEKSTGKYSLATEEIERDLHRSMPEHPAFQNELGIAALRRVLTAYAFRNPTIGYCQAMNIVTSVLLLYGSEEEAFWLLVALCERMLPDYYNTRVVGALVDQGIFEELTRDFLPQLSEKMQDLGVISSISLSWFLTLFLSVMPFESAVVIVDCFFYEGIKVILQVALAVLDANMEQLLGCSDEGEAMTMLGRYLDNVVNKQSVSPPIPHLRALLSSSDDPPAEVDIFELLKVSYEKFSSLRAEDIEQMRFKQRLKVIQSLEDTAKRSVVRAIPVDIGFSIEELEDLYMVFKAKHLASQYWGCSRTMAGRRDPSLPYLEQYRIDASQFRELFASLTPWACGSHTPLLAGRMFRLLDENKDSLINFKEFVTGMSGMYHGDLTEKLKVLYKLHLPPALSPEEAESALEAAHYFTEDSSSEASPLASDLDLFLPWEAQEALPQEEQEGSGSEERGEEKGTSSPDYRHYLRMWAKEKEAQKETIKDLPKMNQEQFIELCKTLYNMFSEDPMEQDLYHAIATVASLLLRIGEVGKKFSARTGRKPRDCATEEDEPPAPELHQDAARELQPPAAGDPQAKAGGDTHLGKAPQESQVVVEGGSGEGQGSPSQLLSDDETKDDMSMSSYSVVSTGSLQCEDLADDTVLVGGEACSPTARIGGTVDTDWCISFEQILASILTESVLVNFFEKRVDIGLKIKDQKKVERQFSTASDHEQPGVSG
UniProt Q96EI5: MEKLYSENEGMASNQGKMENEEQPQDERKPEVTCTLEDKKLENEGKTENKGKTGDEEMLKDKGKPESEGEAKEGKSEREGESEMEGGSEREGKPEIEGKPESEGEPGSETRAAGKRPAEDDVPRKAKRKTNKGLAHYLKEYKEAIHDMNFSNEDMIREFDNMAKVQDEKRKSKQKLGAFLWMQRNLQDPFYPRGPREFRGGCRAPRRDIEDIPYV
UniProt O43615: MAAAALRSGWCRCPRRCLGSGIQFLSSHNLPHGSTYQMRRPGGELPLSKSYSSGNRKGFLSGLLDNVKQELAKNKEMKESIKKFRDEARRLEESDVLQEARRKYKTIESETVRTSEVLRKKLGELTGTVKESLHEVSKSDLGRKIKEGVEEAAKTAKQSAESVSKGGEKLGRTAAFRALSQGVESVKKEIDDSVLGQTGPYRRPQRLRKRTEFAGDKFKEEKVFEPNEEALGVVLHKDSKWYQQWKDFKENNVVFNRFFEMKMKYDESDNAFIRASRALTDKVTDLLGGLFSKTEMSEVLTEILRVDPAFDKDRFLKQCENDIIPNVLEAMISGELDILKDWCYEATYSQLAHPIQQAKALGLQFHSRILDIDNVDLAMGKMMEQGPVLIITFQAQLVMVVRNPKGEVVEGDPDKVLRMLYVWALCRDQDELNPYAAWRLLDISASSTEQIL
UniProt Q96BZ9: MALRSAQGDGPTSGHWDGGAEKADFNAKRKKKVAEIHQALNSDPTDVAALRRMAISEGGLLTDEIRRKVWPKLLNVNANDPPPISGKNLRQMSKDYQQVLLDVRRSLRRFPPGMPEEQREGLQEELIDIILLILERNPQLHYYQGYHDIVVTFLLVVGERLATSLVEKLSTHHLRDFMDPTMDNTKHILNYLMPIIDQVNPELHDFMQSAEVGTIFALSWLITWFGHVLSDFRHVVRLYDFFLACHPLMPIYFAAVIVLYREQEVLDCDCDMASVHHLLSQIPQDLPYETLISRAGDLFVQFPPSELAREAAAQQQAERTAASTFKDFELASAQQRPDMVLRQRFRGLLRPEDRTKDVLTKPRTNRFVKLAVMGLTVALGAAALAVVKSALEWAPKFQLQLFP
UniProt Q13488, whole entry, looked up: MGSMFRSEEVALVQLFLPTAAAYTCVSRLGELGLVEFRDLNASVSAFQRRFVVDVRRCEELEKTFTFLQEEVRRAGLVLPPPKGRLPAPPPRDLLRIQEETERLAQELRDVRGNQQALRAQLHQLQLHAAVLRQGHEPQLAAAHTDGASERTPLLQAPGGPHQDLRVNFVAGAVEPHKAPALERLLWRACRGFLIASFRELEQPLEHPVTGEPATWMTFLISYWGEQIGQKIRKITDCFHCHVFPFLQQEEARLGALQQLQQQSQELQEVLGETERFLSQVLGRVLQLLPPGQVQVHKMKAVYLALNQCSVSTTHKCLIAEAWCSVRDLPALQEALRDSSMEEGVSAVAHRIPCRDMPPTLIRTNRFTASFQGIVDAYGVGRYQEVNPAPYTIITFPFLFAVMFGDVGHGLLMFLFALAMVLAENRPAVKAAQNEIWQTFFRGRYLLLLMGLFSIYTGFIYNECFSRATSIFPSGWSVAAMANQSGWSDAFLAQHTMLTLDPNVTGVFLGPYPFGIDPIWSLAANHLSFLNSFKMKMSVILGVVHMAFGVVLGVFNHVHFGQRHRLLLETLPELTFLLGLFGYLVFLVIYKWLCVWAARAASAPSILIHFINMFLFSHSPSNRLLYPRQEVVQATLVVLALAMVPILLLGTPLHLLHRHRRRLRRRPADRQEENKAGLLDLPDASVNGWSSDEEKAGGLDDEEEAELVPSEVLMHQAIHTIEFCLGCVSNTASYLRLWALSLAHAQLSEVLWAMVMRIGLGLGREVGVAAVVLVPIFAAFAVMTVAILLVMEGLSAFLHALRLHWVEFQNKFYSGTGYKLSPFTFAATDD

Legend:
Assay in all cases: log2 fold change, soluble protein after heating vs DMSO (PISA); higher = thermal stabilisation; K562 cells, 10 uM, 30 min; active = over 0.2 and 3.5 SD of the protein, either way, in both replicates (recomputed)
[1] = compound: CC[C@@H]1C(=O)N(C)c2cnc(Nc3ccc(C(=O)NC4CCN(C)CC4)cc3OC)nc2N1C1CCCC1
In short: (§1)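 Soluble protein was quantified by TMTpro 16plex LC-MS/MS after channel sums were equalised. It was obtained as the supernatant after 21,000xg for 90 min from pooled aliquots of K562 cells (2×10^6 cells/mL, 10 μM compound, 30 min) heated for 3 min across 48°C-58°C and extracted in PBS with 0.5% NP-40 at 4°C. Thermal stability values are relative to control samples and come from duplicates. They are given as log2 fold changes.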

[2] = compound: CC[C@@H]1C(=O)N(C)c2cnc(Nc3ccc(C(=O)N[C@H]4CC[C@H](N5CCN(CC6CC6)CC5)CC4)cc3OC)nc2N1C(C)C [volasertib]
In short: as §1

[3] = compound: CC[C@H](C)N1C=C(C2=C(C=C(C=C21)C3=CN=C(C=C3)N4CCNCC4)C(=O)NCC5=C(C=C(NC5=O)C)C)C
In short: as §1

[4] = compound: CC[C@H](C)[C@@H](C(=O)N[C@@H]([C@@H](C)O)C(=O)N[C@@H](CC(C)C)C(=O)[C@]1(CO1)C)NC(=O)[C@H]([C@@H](C)CC)N(C)C(=O)C [epoxomicin]
In short: as §1

[5] = compound: CN(C)CC(=O)Nc1ccc2[nH]c(=O)c3ccccc3c2c1
In short: as §1

[6] = compound: CN1C2=C(C3=C1C(=O)N(N=C3)CC4=CC(=CC=C4)N)SC(=C2)S(=O)C
In short: as §1

[7] = compound: CN1CCN(CCOc2cc(OC3CCOCC3)c3c(Nc4c(Cl)ccc5c4OCO5)ncnc3c2)CC1 [saracatinib]
In short: as §1

[8] = compound: CN1CCc2c(c3ccccc3n2Cc2ccc(C(=O)NO)cc2)C1 [Tubastatin A]
In short: as §1

[9] = compound: CNC(=O)c1ccc(Nc2ncc(C(F)(F)F)c(NCc3nccnc3N(C)S(C)(=O)=O)n2)cc1 [defactinib]
In short: as §1

[10] = compound: CNCc1ccc(-c2[nH]c3cc(F)cc4c3c2CCNC4=O)cc1 [rucaparib]
In short: as §1

[11] = compound: CNc1nc(-c2ccc3c(N)n[nH]c3c2)cc(N2C[C@@H](C(=O)NC3CCCCC3)CC[C@H]2C)n1
In short: as §1

[12] = compound: COC(=O)N[C@@H](C)CNc1nccc(-c2cn(C(C)C)nc2-c2cc(Cl)cc(NS(C)(=O)=O)c2F)n1 [encorafenib]
In short: as §1

[13] = compound: COC(=O)[C@H](CCSC)NC(=O)C1=C(C=C(C=C1)NC[C@H](CS)N)C2=CC=CC=C2
In short: as §1

[14] = compound: CCn1cc(-c2ccnc3[nH]c(-c4cccc(CN(C)C)c4)cc23)c(-c2ccc(NC(=O)N(C)C)cc2)n1
In short: as §1

[15] = compound: CN1CCC(CNc2ccc3ncc(-c4cccc(OC(F)(F)F)c4)n3n2)CC1
In short: as §1

[16] = compound: CN1CCN(c2nc(C3=C(c4c[nH]c5ccccc45)C(=O)NC3=O)c3ccccc3n2)CC1 [sotrastaurin]
In short: as §1

[17] = compound: CNC(=O)C1=CC=CC=C1NC2=NC(=NC=C2Cl)NC3=C(C=C(C=C3)N4CCOCC4)OC
In short: as §1

[18] = compound: CCn1c(C(=O)N(C2CC2)C2CC2)cc2c3c(ncn3C)c(Nc3cc(C)n(C)n3)nc21
In short: as §1

[19] = compound: CN(CCOC1=CC=C(C=C1)C[C@H]2C(=O)NC(=O)S2)C3=CC=CC=N3 (racemic) [rosiglitazone]
In short: as §1

[20] = compound: CN1CC[C@H](c2c(O)cc(O)c3c(=O)cc(-c4ccccc4Cl)oc23)[C@H](O)C1 [alvocidib]
In short: as §1

Target | log2 fold change [1] | log2 fold change [2] | log2 fold change [3] | log2 fold change [4] | log2 fold change [5] | log2 fold change [6] | log2 fold change [7] | log2 fold change [8] | log2 fold change [9] | log2 fold change [10] | log2 fold change [11] | log2 fold change [12] | log2 fold change [13] | log2 fold change [14] | log2 fold change [15] | log2 fold change [16] | log2 fold change [17] | log2 fold change [18] | log2 fold change [19] | log2 fold change [20]
TBP (UniProt P20226) | inactive: 0.087 | inactive: 0.073 | inactive: 0.095 | inactive: -0.332 | inactive: -0.227 | inactive: 0.001 | inactive: 0.316 | inactive: -0.014 | inactive: -0.003 | inactive: 0.088 | inactive: -0.158 | inactive: 0.019 | inactive: -0.071 | – | – | – | – | – | – | –
TIMM21 (UniProt Q9BVV7) | inactive: -0.133 | active: -0.286 | inactive: 0.034 | inactive: -0.041 | inactive: -0.025 | inactive: -0.044 | inactive: 0 | inactive: -0.048 | inactive: -0.007 | inactive: -0.04 | inactive: -0.016 | inactive: 0.063 | inactive: 0.051 | inactive: -0.028 | inactive: -0.227 | inactive: -0.001 | inactive: -0.025 | – | – | –
TFAM (UniProt Q00059) | inactive: 0.058 | inactive: 0.059 | inactive: 0.007 | inactive: -0.053 | inactive: -0.074 | inactive: 0.098 | inactive: -0.017 | inactive: 0.052 | inactive: 0.107 | inactive: 0.042 | inactive: -0.01 | inactive: 0.039 | inactive: 0.047 | inactive: 0.062 | inactive: 0.049 | inactive: 0.052 | inactive: -0.008 | – | – | –
TBC1D17 (UniProt Q9HA65) | inactive: -0.094 | – | inactive: 0.064 | – | inactive: 0.018 | inactive: 0.019 | inactive: -0.019 | inactive: -0.021 | inactive: -0.206 | inactive: -0.038 | inactive: -0.027 | inactive: 0.047 | inactive: 0.032 | inactive: -0.024 | inactive: -0.05 | inactive: -0.036 | inactive: -0.043 | inactive: -0.008 | inactive: 0.006 | inactive: -0.076
THRAP3 (UniProt Q9Y2W1) | inactive: 0.03 | inactive: 0.098 | inactive: -0.137 | inactive: -0.093 | inactive: -0.026 | inactive: 0.025 | inactive: 0.035 | inactive: 0.048 | inactive: -0.29 | inactive: -0.002 | inactive: -0.047 | inactive: -0.015 | inactive: 0.019 | inactive: 0.101 | inactive: -0.058 | inactive: 0.008 | inactive: -0.266 | – | – | –
TIAL1 isoform 2 (UniProt Q01085) | inactive: 0.042 | inactive: -0.042 | inactive: 0.006 | inactive: 0.001 | inactive: -0.056 | inactive: -0.063 | inactive: 0.015 | inactive: -0.052 | inactive: 0.077 | inactive: 0.066 | inactive: -0.042 | inactive: -0.034 | inactive: -0.014 | inactive: 0.026 | inactive: -0.03 | inactive: 0.025 | inactive: -0.019 | – | – | –
TCOF1 isoform 4 (UniProt Q13428) | inactive: -0.018 | inactive: 0.034 | inactive: -0.016 | inactive: -0.02 | inactive: -0.052 | inactive: 0.019 | inactive: 0.016 | inactive: 0.013 | inactive: -0.033 | inactive: 0.02 | inactive: -0.038 | inactive: 0.002 | inactive: 0.026 | inactive: 0.063 | inactive: -0.06 | inactive: -0.064 | inactive: -0.006 | – | – | –
TFRC (UniProt P02786) | active: -0.589 | active: -0.417 | inactive: -0.035 | inactive: -0.009 | inactive: 0.004 | inactive: -0.033 | inactive: 0.008 | inactive: -0.028 | inactive: -0.03 | inactive: -0.003 | inactive: -0.056 | inactive: 0.019 | inactive: -0.004 | inactive: -0.005 | active: -0.289 | inactive: 0.005 | inactive: 0.029 | – | – | –
TIMM13 (UniProt Q9Y5L4) | inactive: 0.019 | inactive: -0.048 | inactive: 0.027 | inactive: 0.213 | inactive: -0.032 | inactive: -0.094 | inactive: 0.065 | inactive: -0.007 | inactive: -0.038 | inactive: -0.028 | inactive: 0.043 | inactive: 0.044 | inactive: 0 | inactive: 0 | inactive: 0.237 | inactive: -0.007 | inactive: 0.007 | – | – | –
TLCD3A (UniProt Q8TBR7) | inactive: 0.164 | inactive: 0.003 | – | – | inactive: -0.02 | inactive: 0.009 | inactive: 0.164 | inactive: -0.036 | inactive: -0.102 | inactive: -0.005 | inactive: -0.186 | inactive: -0.053 | inactive: 0.003 | inactive: 0.039 | inactive: 0.022 | inactive: 0.055 | – | – | – | –
TBC1D9B (UniProt Q66K14) | active: -0.58 | active: -0.348 | inactive: 0.053 | inactive: -0.073 | inactive: 0.021 | inactive: 0.018 | inactive: -0.023 | inactive: 0.063 | inactive: -0.064 | inactive: 0.009 | inactive: -0.01 | inactive: 0.065 | inactive: 0.027 | inactive: -0.141 | active: -0.328 | inactive: 0.077 | inactive: -0.07 | – | – | –
TBC1D2B (UniProt Q9UPU7) | inactive: -0.05 | – | inactive: -0.025 | – | – | inactive: 0.166 | inactive: -0.275 | – | – | inactive: -0.016 | inactive: -0.126 | inactive: 0.02 | – | – | – | inactive: 0.032 | – | – | inactive: 0.144 | –
TFR2 (UniProt Q9UP52) | active: -0.483 | active: -0.382 | inactive: -0.045 | inactive: 0.01 | inactive: -0.035 | inactive: -0.003 | inactive: 0.007 | inactive: -0.053 | inactive: 0.029 | inactive: 0.029 | inactive: -0.129 | inactive: -0.015 | inactive: 0.009 | inactive: 0.038 | inactive: -0.22 | inactive: -0.031 | inactive: 0.006 | – | – | –
TCEAL4 isoform 2 (UniProt Q96EI5) | inactive: -0.026 | inactive: 0.067 | – | inactive: 0.136 | inactive: 0.07 | inactive: 0 | inactive: -0.028 | inactive: 0.029 | inactive: -0.194 | inactive: -0.067 | inactive: 0.198 | inactive: 0.248 | inactive: -0.084 | inactive: 0.041 | inactive: 0.018 | – | inactive: -0.058 | inactive: -0.053 | – | –
TENT5C (UniProt Q5VWP2) | inactive: -0.073 | inactive: -0.038 | inactive: 0.005 | – | inactive: 0.031 | inactive: -0.066 | inactive: -0.127 | inactive: 0.004 | inactive: 0.071 | inactive: 0.171 | inactive: -0.071 | inactive: 0.094 | inactive: -0.011 | inactive: 0.009 | inactive: -0.082 | inactive: 0.035 | inactive: -0.133 | – | – | –
TIMM44 (UniProt O43615) | active: -0.412 | active: -0.57 | inactive: -0.004 | inactive: 0.057 | inactive: 0.012 | inactive: -0.056 | inactive: -0.055 | inactive: -0.055 | inactive: -0.035 | inactive: -0.12 | inactive: -0.057 | inactive: 0.054 | inactive: 0.007 | inactive: -0.091 | active: -0.886 | inactive: -0.132 | inactive: -0.012 | – | – | –
TBC1D20 isoform 3 (UniProt Q96BZ9) | inactive: 0.273 | inactive: -0.153 | inactive: 0.07 | inactive: 0.068 | inactive: 0.04 | – | – | – | inactive: -0.044 | inactive: 0.05 | – | inactive: 0.074 | inactive: -0.068 | inactive: 0.028 | inactive: 0.046 | inactive: 0.053 | inactive: 0.004 | – | – | –
TCIRG1 (UniProt Q13488) | inactive: -0.094 | – | inactive: 0.011 | inactive: 0.138 | – | inactive: 0.431 | inactive: -0.348 | inactive: 0.135 | – | inactive: 0.283 | inactive: 0.152 | inactive: 0.267 | – | inactive: 0.09 | inactive: 0.091 | – | inactive: -0.082 | inactive: -0.009 | inactive: -0.143 | inactive: 0.144
THEMIS2 (UniProt Q5TEJ8) | – | inactive: -0.087 | inactive: 0.238 | inactive: 0.026 | – | inactive: -0.068 | inactive: -0.023 | inactive: 0.064 | – | – | inactive: -0.141 | – | – | inactive: 0.011 | inactive: -0.139 | – | – | – | – | –

No new results follow: entries from further up.
Target | log2 fold change [1] | log2 fold change [2] | log2 fold change [3] | log2 fold change [4] | log2 fold change [5] | log2 fold change [6] | log2 fold change [7] | log2 fold change [8] | log2 fold change [9] | log2 fold change [10] | log2 fold change [11] | log2 fold change [12] | log2 fold change [13] | log2 fold change [14] | log2 fold change [15] | log2 fold change [16] | log2 fold change [17] | log2 fold change [18] | log2 fold change [19] | log2 fold change [20]
TCOF1 isoform 4 (UniProt Q13428) | inactive: -0.018 | inactive: 0.034 | inactive: -0.016 | inactive: -0.02 | inactive: -0.052 | inactive: 0.019 | inactive: 0.016 | inactive: 0.013 | inactive: -0.033 | inactive: 0.02 | inactive: -0.038 | inactive: 0.002 | inactive: 0.026 | inactive: 0.063 | inactive: -0.06 | inactive: -0.064 | inactive: -0.006 | – | – | –
TFRC (UniProt P02786) | active: -0.589 | active: -0.417 | inactive: -0.035 | inactive: -0.009 | inactive: 0.004 | inactive: -0.033 | inactive: 0.008 | inactive: -0.028 | inactive: -0.03 | inactive: -0.003 | inactive: -0.056 | inactive: 0.019 | inactive: -0.004 | inactive: -0.005 | active: -0.289 | inactive: 0.005 | inactive: 0.029 | – | – | –
